Data from PubChem BioAssay AID1347075 (National Center for Advancing Translational Sciences (NCATS), 2019).
Among all 400,000 compounds or so, about 5,500 (1.4%) were called active. Inconclusive results, whose numbers are uncertain, are shown with a selection of clear calls. Calls follow the shape of the dose curve; as a rule, active = well fitted cell-killing curve with a large enough effect; inconclusive = small, poorly fitted or top-dose-only effect, or effect the other way; inactive = flat fitted curve, though single readings scatter. A potency beside an inconclusive call is a rough fit, not a confirmed value.

Experiment: qHTS assay for MDR1-selective chemotherapeutics: Primary screen using the parental adenocarcinoma cell KB-3-1; also: nearly all actives have a fitted effect of over 60% in size
Settings: KB-3-1 viability, CellTiter-Glo ATP luminescence, 72 h; activity change, negative = cytotoxic: at 46.1 µM (top of the series)
Procedure, shortened: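 Using CellTiter-Glo luminescence, growth of non-resistant KB-3-1 adenocarcinoma cells is assessed 72 h after pin-tool compound addition at 37 °C. Normalized responses across the concentration series yield fitted curves.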
% is scaled to controls: 0 for no effect and ±100 for the full control effect; potency is read from the fitted curve at half-maximal effect.

Compound | Potency | activity change, negative = cytotoxic
COC1=CC(=O)c2ccccc2C1=O | active: 16.4 µM | 
CC1(C(=O)Nc2cccnc2)Cc2c(-c3ccc4c(c3)OCO4)ccnc2O1 (stereo not given) | active: 14.6 µM | 
CC(=O)[C@@]1(O)C(C)CC2C3C=C(C)C4=Cc5c(cnn5-c5ccccc5)C[C@]4(C)C3C(O)C[C@@]21C (stereo not given in full) | inconclusive: 10.3 µM [cytotoxic, partial curve, poor fit] | 
Cc1[nH]c2ccc(C(=O)OC(C)C(=O)NC3CCCCC3C)cc2c1C (stereo not given) | inconclusive: 29.1 µM [cytotoxic, single point] | 
CCOc1ccc(NC2=CC(=O)C(=O)c3ccccc32)cc1 | active: 6.51 µM | 
COC(=O)COc1ccc(/C=C2/SC(=O)N(CC(=O)N3CCCC3)C2=O)cc1Br | inconclusive: 16.4 µM [cytotoxic, single point] | 
Cc1cccc(C)c1N1CCN(C(c2cc3ccccc3o2)c2nnnn2C(C)(C)C)CC1 (stereo not given) | active: 5.8 µM | 
COC(=O)c1ccc(COc2cccn3c(N(C)C(=O)CCC4CCCC4)c(C)nc23)cc1 | inactive | 
Cc1ccc(OCC(=O)NNC(=O)c2cc(S(=O)(=O)N(C)C)ccc2N2CCCC2)cc1 | inactive | 
N#Cc1c(C(F)(F)F)cc(-c2ccccc2)nc1SCCN1CCOCC1 | inactive | 
O=C(CSc1ccc(Br)cc1)NCC1CCCO1 (stereo not given) | inconclusive: 32.6 µM [cytotoxic, single point] | 
CCOc1cc(/C=N\Nc2nc(Nc3ccccc3)nc(N3CCOCC3)n2)ccc1OC(=O)c1ccco1 | inconclusive: 5.8 µM [rising, full curve] | 
COc1ccc2c(CNCc3cccs3)c(C(=O)O)n(Cc3ccc(F)cc3)c2c1 | active: 16.4 µM | 
CCN(Cc1nc2ccccc2c(=O)[nH]1)C(=O)c1ccc(C)c(NC(=O)c2ccco2)c1 | inconclusive: 23.1 µM [cytotoxic, single point] | 
Oc1ccc(/C=N/N=C(c2ccccc2)c2ccccc2)c(O)c1O | inconclusive: 29.1 µM [cytotoxic, single point] | 
CCN(CC)CCNC(=O)CCc1c(C)nc2c(c(C)nn2-c2ccc(C)cc2)c1C | inconclusive: 29.1 µM [cytotoxic, single point] | 
O=C(c1cc2c(c(-c3cccc(-c4ccncc4)c3)n1)[C@H](CCO)N(C(=O)c1ccc3c(c1)OCO3)C2)N1CCOCC1 | inconclusive: 16.4 µM [rising, partial curve, poor fit] | 
O=C(N/N=C/c1ccc[nH]1)c1ccccc1O |  | inconclusive: -2.12%
O=S(=O)(NCC(c1ccccc1)N1CCNCC1)c1ccc(Cl)cc1 (stereo not given) | inconclusive: 29.1 µM [cytotoxic, single point] | 
CC(C)NC(=S)N1CCN(S(=O)(=O)c2cccc(C(F)(F)F)c2)CC1 | inactive | 
Cc1nc(SCc2nc3c(F)cccc3[nH]2)c2oc3ccccc3c2n1 | inactive | 
CC(C)c1nnc(NC(=O)CN(C)S(=O)(=O)c2ccc3c(c2)OCCO3)s1 | inactive | 
Cc1ccc2c(CNC3CCCCC3)c(C(=O)O)n(Cc3ccc(F)cc3)c2c1 | inconclusive: 18.4 µM [cytotoxic, single point] | 
O=C(Nc1nnc(-c2ccccc2Cl)o1)c1ccc(S(=O)(=O)N2CCCCCC2)cc1 | inconclusive: 1.16 µM [cytotoxic, full curve] | 

Compound | Potency | activity change, negative = cytotoxic
Cc1ccc(N2CC(=O)N(NC(=O)CN3CCN(c4ccccc4)CC3)CC2=O)cc1 |  | inconclusive: 0.792%
CCOC(=O)N1CCN(C(=O)CCCn2c(=S)[nH]c3ccsc3c2=O)CC1 | inconclusive: 13 µM [rising, partial curve, poor fit] | 
Cc1nn(-c2ccccc2)c2[nH]c(=O)c(CNc3ccc(N4CCOCC4)cc3)cc12 | inconclusive: 20.6 µM [cytotoxic, single point] | 
CC1CCN(Cc2c(C(=O)N/N=C/c3ccccc3O)nnn2-c2nonc2N)CC1 | active: 5.17 µM | 
OC(COCC1COc2ccccc2O1)CN1CCN(c2ccc(F)cc2)CC1 (stereo not given) | inconclusive: 29.1 µM [cytotoxic, single point] | 
COc1cccc(CNCCc2c[nH]c3ccccc23)c1OCc1ccc(F)cc1 | inconclusive: 29.1 µM [cytotoxic, single point] | 
COCCNc1nc(NCCN2CCNC2=O)c2sccc2n1 | inactive | 
COc1ccc(C2c3ccc(O)cc3Oc3ncn(Cc4ccco4)c(=N)c32)cc1 (stereo not given) | inconclusive: 29.1 µM [cytotoxic, single point] | 
COc1ccccc1NS(=O)(=O)c1ccc(C(=O)Nc2ncccc2O)cc1 | inconclusive: 20.6 µM [cytotoxic, single point] | 
COc1ccccc1NCC(=O)N/N=C/c1c(O)ccc2ccccc12 | inconclusive: 14.6 µM [cytotoxic, partial curve] | 
CCn1cc(C(=O)NCc2ccco2)c(=O)c2cc(S(=O)(=O)N3CC(C)CC(C)C3)ccc21 (stereo not given) | active: 5.8 µM | 
COc1cccc(-c2nc(CS(=O)(=O)CC(=O)NC3CCCc4ccccc43)c(C)o2)c1 (stereo not given) | inconclusive: 20.6 µM [cytotoxic, single point] | 
CCN=C(NC#N)SCc1c(F)cccc1Cl | inactive | 
CCc1ccccc1NC(=O)CSc1nnc(CCNC(=O)OC(C)(C)C)o1 | inconclusive: 23.1 µM [rising, single point] | 
Cc1cc(C)c2nc(C)cc(Nc3cccc(C(=O)O)c3)c2c1 | inconclusive: 25.9 µM [rising, single point] | 
O=C(Nc1sc2c(c1C(=O)NCc1ccco1)CCCC2)c1cc(=O)c2cc(Cl)ccc2o1 | inactive | 
O=C(c1ccccc1)N1CCN(S(=O)(=O)c2ccccc2)CC1 | inconclusive: 20.6 µM [rising, single point] | 
CCOC(=O)c1c(-c2ccc(C)cc2)csc1/N=C(\C)C1=C(O)c2ccccc2C1=O | inconclusive: 13 µM [cytotoxic, partial curve] | 
CC(=O)Nc1cccc(-c2ccnc3c2CC(C)(C(=O)Nc2cccc(Oc4ccccc4)c2)O3)c1 (stereo not given) | inconclusive: 25.9 µM [cytotoxic, single point] | 
Cc1cc(N/N=C2/CCCc3ccccc32)nc2ccccc12 | inconclusive: 25.9 µM [cytotoxic, single point] | 
O=C(NC1CCN(Cc2ccccc2)CC1)c1ccc(Cn2c(=O)c3ccccc3n(Cc3ccc(Cl)cc3)c2=O)cc1 | inactive | 
Cc1ccc(Sc2ccc(NC(=O)CCl)cc2)c(C)c1 | inconclusive: 32.6 µM [cytotoxic, single point] | 
CCc1ccc(NC(=O)N(Cc2cccnc2)Cc2ccco2)cc1 | inactive | 
CC(C)(C)c1ccc(S(=O)(=O)/N=C2\C=C(NS(=O)(=O)c3ccccc3)C(=O)c3ccccc32)cc1 | inactive | 

Compound | Potency | activity change, negative = cytotoxic
CC(=O)N1CCC(N(Cc2ccc(C)o2)C(=O)Nc2cccc(C(F)(F)F)c2)CC1 | inactive | 
O=c1cc(-c2ccccc2)[nH]c2cc(F)ccc12 | active: 1.64 µM | 
C=CCn1c(C)cc(C(=O)CSc2nnc(Cc3ccccc3)o2)c1C | inactive | 
COc1ccc(CCNCc2csc3nc4ccccc4n23)cc1OC | inconclusive: 25.9 µM [cytotoxic, single point] | 
CCN(CC)CCCn1c2c(c(SCC(=O)Nc3ccc(C)c(F)c3)nc1=O)CCC2 | inactive | 
CCN(CC)c1ccc(/C=N/NC(=O)C2CC2)cc1 | inconclusive: 29.1 µM [cytotoxic, single point] | 
O=C(NNS(=O)(=O)c1ccccc1[N+](=O)[O-])c1cc2ccccc2cc1O | inconclusive: 29.1 µM [cytotoxic, single point] | 
COc1ccc(C(=O)C(CCC(CNC(C)(C)C)C(=O)c2ccc(OC)cc2)CNC(C)(C)C)cc1 (stereo not given) | inconclusive: 3.26 µM [cytotoxic, partial curve, poor fit] | 
Cc1cccc(Cn2c(-c3ccccc3)nc3ccccc32)c1 | inconclusive: 29.1 µM [cytotoxic, single point] | 
CCCCC(CC)C(=O)Oc1ccc(O)c(C(C)(C)C)c1 (stereo not given) | inactive | 
O=C(CC1N=C2c3ccccc3N=C(SCc3ccc(F)cc3)N2C1=O)NCCc1ccccc1 (stereo not given) | inconclusive: 29.1 µM [cytotoxic, single point] | 
COc1ccc2[nH]c3c(c2c1)CCN(C(=O)CCC1CCCC1)C3c1ccc(F)cc1 (stereo not given) | inconclusive: 0.731 µM [cytotoxic, full curve] | 
CC(C)c1cc(C(C)C)c(S(=O)(=O)N2c3ccccc3[C@@]3(Br)C[C@H]4C(=O)N[C@@H](Cc5ccccc5)C(=O)N4[C@@H]23)c(C(C)C)c1 | active: 16.4 µM | 
CCN(C(=O)COC(=O)CCc1c[nH]c2ccccc12)c1c(N)n(Cc2ccccc2)c(=O)[nH]c1=O | inactive | 
O=C(/C=C/c1ccccc1)c1cc(Br)ccc(=O)c1O | active: 11.6 µM | 
Cc1ccc(CNC(=O)C(Cc2ccccc2)NS(=O)(=O)c2ccc(Br)s2)cc1 (stereo not given) | inconclusive: 16.4 µM [cytotoxic, single point] | 
CCc1nc2c(OCc3ccccc3)cccn2c1N(C)C(=O)C(C)C | inconclusive: 0.0052 µM [rising, full curve] | 
O=c1c2ccccc2nc(N/N=C/c2c(O)ccc3ccccc23)n1O | inconclusive: 0.651 µM [cytotoxic, full curve, poor fit] | 
CCC(C)NCCCOc1cc(Cl)ccc1Cl (stereo not given) | inactive | 
CCC1CCC/C1=N\NC(=O)c1ccoc1C (stereo not given) | inactive | 
Cc1ccc(C)c(-c2nn(-c3cc(N4CCN(CCO)CC4)ccc3[N+](=O)[O-])c(=O)c3ccccc23)c1 | inactive | 
COc1ccc(NC(=O)C2CCCN(S(=O)(=O)c3c(C)[nH]c(=O)[nH]c3=O)C2)cc1OC (stereo not given) | inactive | 
